Earlier results as cited in patent US8546147B2, “Imidazo[1,2-α]pyrazin-3(7H)-one derivatives bearing a new electron-rich structure” (Universita degli Studi di Siena, priority 2009, dated 2013).
For at least one compound, name, drawing or mass did not settle the structure.

Conditions: cited from earlier work

Question: With `O=c1c(Cc2ccccc2)nc2c(Cc3ccccc3)[nH]c(-c3ccccc3)cn1-2` [Coelenterazine 400a] as the compound, how does the “λ max. Emission (nm)” value read?
Answer: 400 nm
